Measured values taken from patent US20130338214A1.
These are yes or no findings as the source states them, for the method shown. Some binding calls cover weakened binding; strength is not graded here.

Tests used:
[1] = target: EGFR of ROR1-introduced MSTO-211H cells (UniProt P00533); assay: IP-WB, ROR1-introduced MSTO-211H cells
[2] = target: EGFR of ROR1-introduced MSTO-211H cells (UniProt P00533); assay: IP-WB, lysate of ROR1-stably expressing cells (FIG. 7c)

ROR1 (receptor tyrosine kinase-like orphan receptor 1), full-length, untagged (from UniProt Q01973 30-937)
binding [1]: binds
binding [2]: binds
